Results are given in words; binding and its absence hold for the method and conditions named. Binding seen in cells or lysates may run through a third protein. A yes stands for co-enrichment or nearness to the bait. Other partners may have been found. A no says only that the protein was not detected with the bait.
B1: bile acyl-CoA synthetase, endogenous in human liver (enzyme, UniProt Q9Y2P5-1 1-690)
chain: MGVRQQLALLLLLLLLLWGLGQPVWPVAVALTLRWLLGDPTCCVLLGLAMLARPWLGPWVPHGLSLAAAALALTLLPARLPPGLRWLPADVIFLAKILHLGLKIRGCLSRQPPDTFVDAFERRARAQPGRALLVWTGPGAGSVTFGELDARACQAAWALKAELGDPASLCAGEPTALLVLASQAVPALCMWLGLAKLGCPTAWINPHGRGMPLAHSVLSSGARVLVVDPDLRESLEEILPKLQAENIRCFYLSHTSPTPGVGALGAALDAAPSHPVPADLRAGITWRSPALFIYTSGTTGLPKPAILTHERVLQMSKMLSLSGATADDVVYTVLPLYHVMGLVVGILGCLDLGATCVLAPKFSTSCFWDDCRQHGVTVILYVGELLRYLCNIPQQPEDRTHTVRLAMGNGLRADVWETFQQRFGPIRIWEVYGSTEGNMGLVNYVGRCGALGKMSCLLRMLSPFELVQFDMEAAEPVRDNQGFCIPVGLGEPGLLLTKVVSQQPFVGYRGPRELSERKLVRNVRQSGDVYYNTGDVLAMDREGFLYFRDRLGDTFRWKGENVSTHEVEGVLSQVDFLQQVNVYGVCVPGCEGKVGMAAVQLAPGQTFDGEKLYQHVRAWLPAYATPHFIRIQDAMEVTSTFKLMKTRLVREGFNVGIVVDPLFVLDNRAQSFRPLTAEMYQAVCEGTWRL
B2: immediate early response 3 interacting protein 1, endogenous in human liver (protein, UniProt Q9Y5U9 1-82)
chain: MAFTLYSLLQAALLCVNAIAVLHEERFLKNIGWGTDQGIGGFGEEPGIKSQLMNLIRSVRTVMRVPLIIVNSIAIVLLLLFG
B3: translocon associated protein (TRAP) alpha subunit, endogenous in human liver (protein, UniProt P43307 19-286)
chain: VLFRGGPRGLLAVAQDLTEDEETVEDSIIEDEDDEAEVEEDEPTDLVEDKEEEDVSGEPEASPSADTTILFVKGEDFPANNIVKFLVGFTNKGTEDFIVESLDASFRYPQDYQFYIQNFTALPLNTVVPPQRQATFEYSFIPAEPMGGRPFGLVINLNYKDLNGNVFQDAVFNQTVTVIEREDGLDGETIFMYMFLAGLGLLVIVGLHQLLESRKRKRPIQKVEMGTSSQNDVDMSWIPQETLNQINKASPRRLPRKRAQKRSVGSDE
B4: B-cell receptor-associated protein 31, endogenous in human liver (protein, UniProt P51572-1 1-246)
chain: MSLQWTAVATFLYAEVFVVLLLCIPFISPKRWQKIFKSRLVELLVSYGNTFFVVLIVILVLLVIDAVREIRKYDDVTEKVNLQNNPGAMEHFHMKLFRAQRNLYIAGFSLLLSFLLRRLVTLISQQATLLASNEAFKKQAESASEAAKKYMEENDQLKKGAAVDGGKLDVGNAEVKLEEENRSLKADLQKLKDELASTKQKLEKAENQVLAMRKQSEGLTKEYDRLLEEHAKLQAAVDGPMDKKEE
B5: transmembrane protein 14A, endogenous in human liver (protein, UniProt Q9Y6G1 1-99)
chain: MDLIGFGYAALVTFGSIFGYKRRGGVPSLIAGLFVGCLAGYGAYRVSNDKRDVKVSLFTAFFLATIMGVRFKRSKKIMPAGLVAGLSLMMILRLVLLLL
B6: signal sequence receptor, gamma (translocon-associated protein gamma), endogenous in human liver (protein, UniProt Q9UNL2-1 1-185)
chain: MAPKGSSKQQSEEDLLLQDFSRNLSAKSSALFFGNAFIVSAIPIWLYWRIWHMDLIQSAVLYSVMTLVSTYLVAFAYKNVKFVLKHKVAQKREDAVSKEVTRKLSEADNRKMSRKEKDERILWKKNEVADYEATTFSIFYNNTLFLVVVIVASFFILKNFNPTVNYILSISASSGLIALLSTGSK
B7: retention in endoplasmic reticulum 1, endogenous in human liver (protein, UniProt O15258 1-196)
chain: MSEGDSVGESVHGKPSVVYRFFTRLGQIYQSWLDKSTPYTAVRWVVTLGLSFVYMIRVYLLQGWYIVTYALGIYHLNLFIAFLSPKVDPSLMEDSDDGPSLPTKQNEEFRPFIRRLPEFKFWHAATKGILVAMVCTFFDAFNVPVFWPILVMYFIMLFCITMKRQIKHMIKYRYIPFTHGKRRYRGKEDAGKAFAS

Amino acid sequences for entries named in this document (tags omitted).
UniProt O95342: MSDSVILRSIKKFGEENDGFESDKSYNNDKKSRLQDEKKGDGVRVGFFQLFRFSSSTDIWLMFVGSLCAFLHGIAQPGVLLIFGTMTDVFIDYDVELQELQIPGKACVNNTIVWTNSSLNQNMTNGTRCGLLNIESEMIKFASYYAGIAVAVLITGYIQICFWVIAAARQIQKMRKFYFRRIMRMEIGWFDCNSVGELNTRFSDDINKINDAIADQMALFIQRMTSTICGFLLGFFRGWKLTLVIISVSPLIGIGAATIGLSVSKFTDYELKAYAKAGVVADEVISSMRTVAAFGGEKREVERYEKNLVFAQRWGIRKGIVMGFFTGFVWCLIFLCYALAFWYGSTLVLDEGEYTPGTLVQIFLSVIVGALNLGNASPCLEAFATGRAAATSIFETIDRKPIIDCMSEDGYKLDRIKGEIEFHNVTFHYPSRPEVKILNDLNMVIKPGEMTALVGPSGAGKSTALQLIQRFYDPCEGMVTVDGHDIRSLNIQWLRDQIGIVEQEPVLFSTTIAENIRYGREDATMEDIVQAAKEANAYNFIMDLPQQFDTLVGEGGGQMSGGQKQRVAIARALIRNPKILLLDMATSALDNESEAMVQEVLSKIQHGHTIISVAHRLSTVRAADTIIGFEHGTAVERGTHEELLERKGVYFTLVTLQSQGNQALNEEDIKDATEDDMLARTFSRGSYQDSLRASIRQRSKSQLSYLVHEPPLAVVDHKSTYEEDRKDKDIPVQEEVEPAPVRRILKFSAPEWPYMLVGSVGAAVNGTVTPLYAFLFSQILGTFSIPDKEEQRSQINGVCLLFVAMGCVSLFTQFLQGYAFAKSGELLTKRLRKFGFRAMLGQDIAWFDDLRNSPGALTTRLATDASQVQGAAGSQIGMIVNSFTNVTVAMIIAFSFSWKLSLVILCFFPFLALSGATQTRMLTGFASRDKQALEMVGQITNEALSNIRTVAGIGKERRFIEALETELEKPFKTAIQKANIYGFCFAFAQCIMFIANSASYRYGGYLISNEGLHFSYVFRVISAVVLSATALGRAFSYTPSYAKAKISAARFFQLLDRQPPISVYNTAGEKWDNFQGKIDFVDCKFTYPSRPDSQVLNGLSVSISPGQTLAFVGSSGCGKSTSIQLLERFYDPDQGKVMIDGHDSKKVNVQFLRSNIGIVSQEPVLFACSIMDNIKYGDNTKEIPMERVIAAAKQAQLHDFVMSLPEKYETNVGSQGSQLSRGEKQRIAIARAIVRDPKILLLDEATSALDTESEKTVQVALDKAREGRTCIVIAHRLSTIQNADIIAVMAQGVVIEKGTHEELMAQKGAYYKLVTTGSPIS
UniProt O14745: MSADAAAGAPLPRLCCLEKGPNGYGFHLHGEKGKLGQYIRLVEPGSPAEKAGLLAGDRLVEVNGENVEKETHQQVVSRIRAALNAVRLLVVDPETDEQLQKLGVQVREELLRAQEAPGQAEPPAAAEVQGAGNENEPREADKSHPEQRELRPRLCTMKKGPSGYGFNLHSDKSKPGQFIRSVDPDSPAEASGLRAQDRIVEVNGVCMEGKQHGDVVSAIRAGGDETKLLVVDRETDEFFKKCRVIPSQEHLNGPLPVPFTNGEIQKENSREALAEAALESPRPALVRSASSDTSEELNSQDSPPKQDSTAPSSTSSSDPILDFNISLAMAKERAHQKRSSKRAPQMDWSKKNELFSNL
UniProt Q6UW68: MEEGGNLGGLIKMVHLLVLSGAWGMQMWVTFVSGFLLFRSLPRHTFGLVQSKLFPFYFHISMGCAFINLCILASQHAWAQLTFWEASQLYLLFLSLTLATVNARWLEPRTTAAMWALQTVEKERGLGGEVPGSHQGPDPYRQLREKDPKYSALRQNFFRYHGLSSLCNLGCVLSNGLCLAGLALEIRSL
UniProt O14975: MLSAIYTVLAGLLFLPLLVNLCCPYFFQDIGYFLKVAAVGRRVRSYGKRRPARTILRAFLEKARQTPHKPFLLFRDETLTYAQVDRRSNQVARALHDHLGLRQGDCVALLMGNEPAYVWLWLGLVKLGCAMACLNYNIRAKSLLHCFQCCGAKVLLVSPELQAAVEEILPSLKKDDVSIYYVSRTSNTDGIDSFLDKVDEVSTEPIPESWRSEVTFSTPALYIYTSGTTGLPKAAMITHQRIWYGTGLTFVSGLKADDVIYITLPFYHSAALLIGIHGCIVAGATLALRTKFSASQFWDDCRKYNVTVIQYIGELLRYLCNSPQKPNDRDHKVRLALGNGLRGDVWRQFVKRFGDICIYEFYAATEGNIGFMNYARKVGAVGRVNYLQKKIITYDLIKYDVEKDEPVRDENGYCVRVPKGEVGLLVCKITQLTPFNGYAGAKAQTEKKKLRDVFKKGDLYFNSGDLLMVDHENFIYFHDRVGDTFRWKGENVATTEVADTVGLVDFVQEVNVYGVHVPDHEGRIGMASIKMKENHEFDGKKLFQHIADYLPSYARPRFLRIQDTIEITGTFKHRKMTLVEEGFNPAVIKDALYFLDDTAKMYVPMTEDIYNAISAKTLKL
UniProt Q96HR9: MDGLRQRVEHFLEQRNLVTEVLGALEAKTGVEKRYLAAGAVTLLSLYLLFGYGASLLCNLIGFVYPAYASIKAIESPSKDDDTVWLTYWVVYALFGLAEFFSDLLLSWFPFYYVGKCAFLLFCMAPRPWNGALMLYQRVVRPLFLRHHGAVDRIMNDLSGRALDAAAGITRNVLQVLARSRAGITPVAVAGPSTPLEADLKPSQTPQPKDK

The molecules below were run against bile salt export pump (BSEP, ABCB11), endogenous in human liver (human (endogenous in human liver)) (UniProt O95342) (assay: affinity purification with mass spectrometry; BSEP immunoprecipitated with monoclonal antibody F-6 from crude canalicular membranes of human liver solubilised in 1% digitonin; shotgun MS/MS; control naive mouse IgG2a).
With “NHERF1, endogenous in human liver (from UniProt O14745 1-358)” the binding was “no binding”.

Biological target: bile salt export pump (BSEP, ABCB11), endogenous in human liver (human (endogenous in human liver)) (UniProt O95342)
Assay: as above
Remark: another data set of the same source
For B1, the binding was “no binding (only solubilised with digitonin)”.

These molecules were tested against bile salt export pump (BSEP, ABCB11), endogenous in human liver (human (endogenous in human liver)) (UniProt O95342) (assay: affinity purification with mass spectrometry; BSEP immunoprecipitated with monoclonal antibody F-6 from crude canalicular membranes of human liver solubilised in 1% Triton X-100; shotgun MS/MS; control naive mouse IgG2a).
“transmembrane protein 205, endogenous in human liver (from UniProt Q6UW68 1-189)” was tested, and the binding was “binds”. For “NHERF1, endogenous in human liver (from UniProt O14745 1-358)”, the binding was “no binding”. With “very long-chain acyl-CoA synthetase, endogenous in human liver (from UniProt O14975 1-620) (enzyme)” the binding was “binds”. With “receptor expression-enhancing protein 6, endogenous in human liver (from UniProt Q96HR9 1-211)” the binding was “binds”. In the case of “translocation associated membrane protein 1, endogenous in human liver (from UniProt Q15629-1 1-374)”, the binding is reported as “binds”. With B2 the binding was “binds”. B3 was tested, and the binding was “binds”. With B4 the binding was “binds”. For B5, the binding was “binds”. For B6, the binding was “binds”. With B7 the binding was “binds”. For B1, the binding was “binds”.

— publication PMC4966956, “Analysis of the Bile Salt Export Pump (ABCB11) Interactome Employing Complementary Approaches” (PLoS ONE, 2016)
